Measurements from publication PMC11220700, “Activation and Purification of ß‐Glucocerebrosidase by Exploiting its Transporter LIMP‐2 – Implications for Novel Treatment Strategies in Gaucher's and Parkinson's Disease” (Advanced Science, 2024).
Changes are numbered by the printed parent chain. Names may count otherwise. Results are given in words; binding and its absence hold for the method and conditions named. For part of these data: In cells and extracts the contact can be indirect. Some binding calls cover weakened binding; strength is not graded here. For part of these data: Where a sequence is shown, tags or fusion partners need not be part of it.

T1: soluble LIMP‐2 (sLIMP‐2), secreted LIMP‐2 ectodomain (human) (UniProt Q14108)
T1 sequence: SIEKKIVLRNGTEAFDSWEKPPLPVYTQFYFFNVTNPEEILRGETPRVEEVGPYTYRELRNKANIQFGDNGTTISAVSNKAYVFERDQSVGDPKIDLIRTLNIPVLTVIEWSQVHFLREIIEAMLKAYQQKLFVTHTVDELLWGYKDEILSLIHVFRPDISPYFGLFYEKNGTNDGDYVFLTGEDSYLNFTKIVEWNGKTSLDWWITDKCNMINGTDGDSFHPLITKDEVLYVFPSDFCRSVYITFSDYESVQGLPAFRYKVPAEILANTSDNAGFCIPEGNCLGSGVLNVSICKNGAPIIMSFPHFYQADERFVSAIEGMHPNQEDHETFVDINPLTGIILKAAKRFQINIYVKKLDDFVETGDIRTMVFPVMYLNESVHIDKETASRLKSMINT

B1: endogenous GCase of HEK 293F cells (enzyme, UniProt P04062-1 40-536)
chain: ARPCIPKSFGYSSVVCVCNATYCDSFDPPTFPALGTFSRYESTRSGRRMELSMGPIQANHTGTGLLLTLQPEQKFQKVKGFGGAMTDAAALNILALSPPAQNLLLKSYFSEEGIGYNIIRVPMASCDFSIRTYTYADTPDDFQLHNFSLPEEDTKLKIPLIHRALQLAQRPVSLLASPWTSPTWLKTNGAVNGKGSLKGQPGDIYHQTWARYFVKFLDAYAEHKLQFWAVTAENEPSAGLLSGYPFQCLGFTPEHQRDFIARDLGPTLANSTHHNVRLLMLDDQRLLLPHWAKVVLTDPEAAKYVHGIAVHWYLDFLAPAKATLGETHRLFPNTMLFASEACVGSKFWEQSVRLGSWDRGMQYSHSIITNLLYHVVGWTDWNLALNPEGGPNWVRNFVDSPIIVDITKDTFYKQPMFYHLGHFSKFIPEGSQRVGLVASQKNDLDAVALMHPDGSAVVVVLNRSSKDVPLTIKDPAVGFLETISPGYSIHTYLWRRQ
B2: untagged GCase L444P (enzyme, UniProt P04062-1 40-536)
chain: B1 chain with L444P
B3: soluble LIMP‐2 (sLIMP‐2), secreted LIMP‐2 ectodomain (domain or fragment, UniProt Q14108 36-431)
chain: T1 sequence

Tests used:
[1] = target: T1, soluble LIMP‐2 (sLIMP‐2), secreted LIMP‐2 ectodomain (human); test: pull-down; Ni-NTA beads in conditioned medium of HEK 293F cells expressing His-tagged sLIMP-2 with untagged GCase (96 h); overnight at 4 °C; wash with 20 mM imidazole, elution with 400 mM imidazole, pH 8.0; western blot
[2] = target: T1, soluble LIMP‐2 (sLIMP‐2), secreted LIMP‐2 ectodomain (human); test: SEC; Ni-NTA eluate (co-expressed, co-purified sLIMP-2/GCase, or sLIMP-2 alone) on Superdex 200 Increase 3.2/300 in 25 mM HEPES, 150 mM NaCl, pH 6.5; UV280, western blot and activity of fractions; both purified

Binder	binding [1]	binding [2]
B1	binds	–
B2	binds weakly	–
B3	–	no binding
